From paper PMC6326811
Results are given in words; binding and its absence hold for the method and conditions named. Binding seen in cells or lysates may run through a third protein. Some results given as binding are weak or reduced against the parent protein; the word gives no strength.

By UniProt entry, the sequences of proteins in these tests, tags left out.
UniProt O14746: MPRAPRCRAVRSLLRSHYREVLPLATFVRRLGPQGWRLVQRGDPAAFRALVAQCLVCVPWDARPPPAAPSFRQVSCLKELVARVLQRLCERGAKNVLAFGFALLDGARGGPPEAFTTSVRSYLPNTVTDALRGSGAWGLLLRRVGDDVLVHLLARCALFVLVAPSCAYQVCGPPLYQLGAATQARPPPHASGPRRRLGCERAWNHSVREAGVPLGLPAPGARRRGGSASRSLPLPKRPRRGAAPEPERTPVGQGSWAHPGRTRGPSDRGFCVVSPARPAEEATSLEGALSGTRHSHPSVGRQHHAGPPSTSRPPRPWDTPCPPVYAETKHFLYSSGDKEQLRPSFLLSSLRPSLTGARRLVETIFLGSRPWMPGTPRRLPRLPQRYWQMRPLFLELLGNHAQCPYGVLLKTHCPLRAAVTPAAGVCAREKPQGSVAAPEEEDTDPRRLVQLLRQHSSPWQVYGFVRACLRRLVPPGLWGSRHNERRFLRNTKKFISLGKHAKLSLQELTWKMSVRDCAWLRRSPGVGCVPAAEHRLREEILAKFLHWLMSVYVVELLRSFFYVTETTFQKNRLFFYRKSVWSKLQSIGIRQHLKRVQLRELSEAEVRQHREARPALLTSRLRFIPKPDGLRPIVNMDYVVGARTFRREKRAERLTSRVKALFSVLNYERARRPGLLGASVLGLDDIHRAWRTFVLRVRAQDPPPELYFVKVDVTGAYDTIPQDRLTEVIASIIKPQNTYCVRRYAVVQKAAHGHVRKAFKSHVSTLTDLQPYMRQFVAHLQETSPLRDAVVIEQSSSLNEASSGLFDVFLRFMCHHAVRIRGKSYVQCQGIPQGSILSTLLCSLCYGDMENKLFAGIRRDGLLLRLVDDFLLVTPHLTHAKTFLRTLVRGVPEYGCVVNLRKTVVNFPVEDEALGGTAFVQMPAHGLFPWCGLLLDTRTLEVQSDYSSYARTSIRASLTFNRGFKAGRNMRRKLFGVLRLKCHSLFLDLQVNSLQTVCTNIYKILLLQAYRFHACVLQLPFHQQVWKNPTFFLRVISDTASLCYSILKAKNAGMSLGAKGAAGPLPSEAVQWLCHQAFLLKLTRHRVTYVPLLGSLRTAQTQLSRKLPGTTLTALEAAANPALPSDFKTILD
UniProt Q9BUR4: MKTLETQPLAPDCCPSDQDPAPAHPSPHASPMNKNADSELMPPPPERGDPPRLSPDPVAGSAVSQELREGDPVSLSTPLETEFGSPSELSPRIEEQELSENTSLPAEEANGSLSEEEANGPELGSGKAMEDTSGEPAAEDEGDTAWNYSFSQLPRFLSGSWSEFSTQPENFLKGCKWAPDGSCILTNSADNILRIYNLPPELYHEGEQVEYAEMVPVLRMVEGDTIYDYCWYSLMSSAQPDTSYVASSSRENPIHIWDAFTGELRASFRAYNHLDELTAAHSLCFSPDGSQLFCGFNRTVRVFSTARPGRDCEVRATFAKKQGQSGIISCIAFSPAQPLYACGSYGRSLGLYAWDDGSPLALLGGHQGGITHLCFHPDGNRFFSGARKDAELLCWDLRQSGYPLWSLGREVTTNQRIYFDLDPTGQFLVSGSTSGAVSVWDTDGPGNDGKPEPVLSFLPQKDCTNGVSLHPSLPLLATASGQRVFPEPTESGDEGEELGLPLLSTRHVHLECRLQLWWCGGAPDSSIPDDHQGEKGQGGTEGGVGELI

Assays:
Assay in all cases: co-IP; GST-TOE1 transiently co-expressed in 293T cells with FLAG-HA-tagged proteins; IP with anti-FLAG agarose beads; blots with anti-FLAG and anti-GST
[1] = biological target: FLAG-HA-tagged TERT (human) (UniProt O14746)
[2] = biological target: FLAG-HA-tagged full-length wild-type TOE1 (human) (UniProt Q96GM8)
[3] = biological target: FLAG-HA-tagged TCAB1 (human) (UniProt Q9BUR4)

binding [1]: binds
binding [2]: binds
binding [3]: binds
Substance: GST-tagged TOE1 (from UniProt Q96GM8 1-510)
